In the supplement of paper PMC10849652:
This is one part of the list.

By UniProt entry, the sequences of proteins in these tests, tags left out. Where a name states a change or a piece, a line headed by the entry shows the natural chain unless it says otherwise.
UniProt Q9Y5K8, whole entry, looked up: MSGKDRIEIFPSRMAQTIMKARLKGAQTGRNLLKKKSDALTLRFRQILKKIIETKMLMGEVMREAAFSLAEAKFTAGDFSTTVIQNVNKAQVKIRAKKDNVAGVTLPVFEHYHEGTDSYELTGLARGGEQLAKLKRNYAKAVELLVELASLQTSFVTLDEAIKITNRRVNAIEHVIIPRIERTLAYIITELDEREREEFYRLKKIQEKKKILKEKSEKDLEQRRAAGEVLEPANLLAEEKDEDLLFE
UniProt Q13733, whole entry, looked up: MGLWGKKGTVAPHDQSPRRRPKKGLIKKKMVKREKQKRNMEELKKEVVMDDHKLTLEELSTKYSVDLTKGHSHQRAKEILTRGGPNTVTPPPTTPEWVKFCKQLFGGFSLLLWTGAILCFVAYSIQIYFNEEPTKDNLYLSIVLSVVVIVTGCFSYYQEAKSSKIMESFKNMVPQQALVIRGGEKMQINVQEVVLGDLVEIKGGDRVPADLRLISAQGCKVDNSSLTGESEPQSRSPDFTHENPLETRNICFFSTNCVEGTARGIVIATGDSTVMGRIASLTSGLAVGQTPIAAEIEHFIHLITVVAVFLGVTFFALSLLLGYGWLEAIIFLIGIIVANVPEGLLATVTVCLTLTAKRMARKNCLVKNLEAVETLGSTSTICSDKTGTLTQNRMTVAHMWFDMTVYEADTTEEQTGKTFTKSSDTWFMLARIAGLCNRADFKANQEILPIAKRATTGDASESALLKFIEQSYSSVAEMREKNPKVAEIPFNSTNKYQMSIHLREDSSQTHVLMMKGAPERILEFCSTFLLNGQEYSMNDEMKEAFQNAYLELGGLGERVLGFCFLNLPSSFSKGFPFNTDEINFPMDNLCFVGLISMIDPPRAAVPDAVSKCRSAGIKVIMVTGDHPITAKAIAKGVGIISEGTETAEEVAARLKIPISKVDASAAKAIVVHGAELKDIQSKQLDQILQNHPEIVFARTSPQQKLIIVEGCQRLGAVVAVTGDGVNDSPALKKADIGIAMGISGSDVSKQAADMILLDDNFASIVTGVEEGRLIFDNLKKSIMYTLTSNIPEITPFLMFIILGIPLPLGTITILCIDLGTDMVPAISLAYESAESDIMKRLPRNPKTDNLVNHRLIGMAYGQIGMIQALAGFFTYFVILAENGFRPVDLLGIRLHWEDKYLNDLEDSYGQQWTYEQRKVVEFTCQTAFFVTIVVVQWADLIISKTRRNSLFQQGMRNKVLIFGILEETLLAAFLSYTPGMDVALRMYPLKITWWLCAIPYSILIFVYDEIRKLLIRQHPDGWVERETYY
UniProt Q9NVT9: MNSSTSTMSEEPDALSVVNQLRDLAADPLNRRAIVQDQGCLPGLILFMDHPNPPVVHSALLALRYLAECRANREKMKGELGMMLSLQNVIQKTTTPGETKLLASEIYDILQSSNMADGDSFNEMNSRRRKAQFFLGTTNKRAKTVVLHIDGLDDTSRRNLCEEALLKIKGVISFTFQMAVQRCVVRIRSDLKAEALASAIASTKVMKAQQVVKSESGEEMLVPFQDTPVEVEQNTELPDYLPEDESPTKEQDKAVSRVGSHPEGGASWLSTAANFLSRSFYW
UniProt Q12797: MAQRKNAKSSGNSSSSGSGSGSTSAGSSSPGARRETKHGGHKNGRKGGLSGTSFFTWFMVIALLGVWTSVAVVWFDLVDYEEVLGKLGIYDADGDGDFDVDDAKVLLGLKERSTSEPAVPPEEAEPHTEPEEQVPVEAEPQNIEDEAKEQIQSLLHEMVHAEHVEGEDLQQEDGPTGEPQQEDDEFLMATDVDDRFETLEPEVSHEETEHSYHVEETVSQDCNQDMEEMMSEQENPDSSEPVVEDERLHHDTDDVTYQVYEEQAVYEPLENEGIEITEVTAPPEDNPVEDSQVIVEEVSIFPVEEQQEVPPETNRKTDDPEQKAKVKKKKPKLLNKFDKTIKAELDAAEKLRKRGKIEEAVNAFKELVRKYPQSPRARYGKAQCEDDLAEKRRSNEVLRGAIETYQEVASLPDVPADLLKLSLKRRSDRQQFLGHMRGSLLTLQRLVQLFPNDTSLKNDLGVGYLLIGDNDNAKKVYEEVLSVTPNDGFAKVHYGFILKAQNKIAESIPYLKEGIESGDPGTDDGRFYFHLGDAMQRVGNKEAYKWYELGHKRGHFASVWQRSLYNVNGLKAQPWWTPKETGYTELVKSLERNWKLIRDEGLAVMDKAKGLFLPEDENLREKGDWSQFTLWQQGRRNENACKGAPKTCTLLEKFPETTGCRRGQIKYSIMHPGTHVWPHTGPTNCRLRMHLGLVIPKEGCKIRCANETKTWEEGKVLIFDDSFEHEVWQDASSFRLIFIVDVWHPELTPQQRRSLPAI
UniProt P08243: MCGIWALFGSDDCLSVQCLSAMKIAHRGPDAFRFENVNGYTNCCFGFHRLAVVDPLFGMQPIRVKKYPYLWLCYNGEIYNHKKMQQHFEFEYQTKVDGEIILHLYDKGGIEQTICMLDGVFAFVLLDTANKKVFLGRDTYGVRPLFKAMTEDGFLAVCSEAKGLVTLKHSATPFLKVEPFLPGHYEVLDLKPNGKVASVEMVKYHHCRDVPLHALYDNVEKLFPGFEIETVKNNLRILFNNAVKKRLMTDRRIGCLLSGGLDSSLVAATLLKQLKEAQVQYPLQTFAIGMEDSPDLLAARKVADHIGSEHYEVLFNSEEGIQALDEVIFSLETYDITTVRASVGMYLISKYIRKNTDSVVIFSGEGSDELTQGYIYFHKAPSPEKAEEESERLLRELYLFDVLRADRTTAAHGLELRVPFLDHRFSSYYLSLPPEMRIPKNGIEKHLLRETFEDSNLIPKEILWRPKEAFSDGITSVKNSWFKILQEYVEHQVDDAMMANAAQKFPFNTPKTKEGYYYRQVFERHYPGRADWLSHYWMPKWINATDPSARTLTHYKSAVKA
UniProt P04424, whole entry, looked up: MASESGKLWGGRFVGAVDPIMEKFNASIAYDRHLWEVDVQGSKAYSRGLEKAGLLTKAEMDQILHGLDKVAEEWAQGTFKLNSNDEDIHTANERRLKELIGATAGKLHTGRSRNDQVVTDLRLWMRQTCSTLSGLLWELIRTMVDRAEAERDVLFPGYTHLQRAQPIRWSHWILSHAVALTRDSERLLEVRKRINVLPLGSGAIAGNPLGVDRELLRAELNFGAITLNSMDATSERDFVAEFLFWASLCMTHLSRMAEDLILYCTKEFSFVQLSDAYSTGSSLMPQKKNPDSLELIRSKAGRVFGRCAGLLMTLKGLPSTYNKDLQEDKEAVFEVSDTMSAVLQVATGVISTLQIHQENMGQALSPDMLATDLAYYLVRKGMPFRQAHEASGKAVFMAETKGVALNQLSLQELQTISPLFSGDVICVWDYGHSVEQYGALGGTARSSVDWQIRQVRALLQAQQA
UniProt O75787, whole entry, looked up: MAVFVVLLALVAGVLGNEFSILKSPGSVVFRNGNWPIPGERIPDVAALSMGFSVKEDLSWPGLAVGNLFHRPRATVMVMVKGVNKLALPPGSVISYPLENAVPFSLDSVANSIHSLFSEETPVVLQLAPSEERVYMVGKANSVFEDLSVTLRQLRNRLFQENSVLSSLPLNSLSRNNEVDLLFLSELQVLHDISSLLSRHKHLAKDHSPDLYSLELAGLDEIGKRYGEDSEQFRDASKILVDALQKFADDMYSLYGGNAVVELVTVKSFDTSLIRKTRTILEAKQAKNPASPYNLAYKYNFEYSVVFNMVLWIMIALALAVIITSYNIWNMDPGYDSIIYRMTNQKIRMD
UniProt P15848: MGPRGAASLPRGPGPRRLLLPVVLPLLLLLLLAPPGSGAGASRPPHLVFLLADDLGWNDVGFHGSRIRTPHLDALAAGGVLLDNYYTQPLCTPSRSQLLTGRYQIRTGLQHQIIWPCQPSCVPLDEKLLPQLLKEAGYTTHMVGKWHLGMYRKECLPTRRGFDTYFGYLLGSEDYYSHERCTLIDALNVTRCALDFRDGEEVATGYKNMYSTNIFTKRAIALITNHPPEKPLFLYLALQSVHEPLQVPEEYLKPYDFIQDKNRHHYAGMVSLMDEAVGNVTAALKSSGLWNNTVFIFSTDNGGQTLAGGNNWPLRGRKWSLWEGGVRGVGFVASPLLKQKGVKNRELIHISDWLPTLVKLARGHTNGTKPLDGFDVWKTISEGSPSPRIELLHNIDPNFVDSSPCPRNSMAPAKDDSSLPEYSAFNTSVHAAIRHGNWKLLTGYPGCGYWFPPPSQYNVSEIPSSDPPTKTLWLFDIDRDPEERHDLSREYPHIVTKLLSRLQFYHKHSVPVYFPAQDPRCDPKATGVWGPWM
UniProt Q9UII2: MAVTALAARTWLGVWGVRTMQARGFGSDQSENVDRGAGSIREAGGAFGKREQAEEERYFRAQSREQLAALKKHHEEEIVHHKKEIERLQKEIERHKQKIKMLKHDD
UniProt Q9H1Y0: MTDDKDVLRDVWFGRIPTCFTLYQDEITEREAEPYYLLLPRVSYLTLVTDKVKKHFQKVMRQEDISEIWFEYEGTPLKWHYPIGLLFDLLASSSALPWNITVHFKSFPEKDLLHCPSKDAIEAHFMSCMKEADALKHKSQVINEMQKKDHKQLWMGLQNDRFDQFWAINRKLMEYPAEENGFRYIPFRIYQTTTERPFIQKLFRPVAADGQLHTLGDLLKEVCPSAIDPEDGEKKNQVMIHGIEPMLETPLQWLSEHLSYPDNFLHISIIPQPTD
UniProt Q9HD20: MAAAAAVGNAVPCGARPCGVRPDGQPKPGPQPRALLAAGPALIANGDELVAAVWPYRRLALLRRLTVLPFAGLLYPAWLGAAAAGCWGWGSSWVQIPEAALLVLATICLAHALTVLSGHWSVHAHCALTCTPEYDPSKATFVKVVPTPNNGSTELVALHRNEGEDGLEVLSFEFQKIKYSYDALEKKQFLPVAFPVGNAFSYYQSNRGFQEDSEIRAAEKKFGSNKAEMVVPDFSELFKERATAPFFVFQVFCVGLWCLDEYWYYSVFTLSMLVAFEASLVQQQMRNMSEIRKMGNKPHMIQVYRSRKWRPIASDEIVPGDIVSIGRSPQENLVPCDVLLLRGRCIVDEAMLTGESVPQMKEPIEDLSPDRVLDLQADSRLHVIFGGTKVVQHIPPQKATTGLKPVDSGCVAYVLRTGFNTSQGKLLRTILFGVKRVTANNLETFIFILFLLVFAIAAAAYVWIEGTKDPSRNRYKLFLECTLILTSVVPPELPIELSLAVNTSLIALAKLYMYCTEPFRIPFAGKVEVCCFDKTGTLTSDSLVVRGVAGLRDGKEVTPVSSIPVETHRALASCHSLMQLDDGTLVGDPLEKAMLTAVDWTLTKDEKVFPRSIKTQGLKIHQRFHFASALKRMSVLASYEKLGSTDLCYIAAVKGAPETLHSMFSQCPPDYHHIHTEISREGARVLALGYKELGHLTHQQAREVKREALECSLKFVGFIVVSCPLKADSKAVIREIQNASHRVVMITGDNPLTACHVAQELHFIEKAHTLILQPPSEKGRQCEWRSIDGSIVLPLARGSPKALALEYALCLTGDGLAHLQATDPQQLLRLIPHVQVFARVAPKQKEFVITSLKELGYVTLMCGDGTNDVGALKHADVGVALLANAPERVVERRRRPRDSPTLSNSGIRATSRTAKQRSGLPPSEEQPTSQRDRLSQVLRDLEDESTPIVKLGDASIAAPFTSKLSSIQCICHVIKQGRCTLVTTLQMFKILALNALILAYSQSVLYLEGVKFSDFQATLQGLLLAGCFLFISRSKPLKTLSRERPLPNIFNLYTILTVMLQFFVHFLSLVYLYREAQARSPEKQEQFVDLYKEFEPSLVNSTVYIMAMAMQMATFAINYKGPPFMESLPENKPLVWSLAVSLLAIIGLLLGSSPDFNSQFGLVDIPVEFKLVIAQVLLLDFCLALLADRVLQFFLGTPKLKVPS
UniProt P36542: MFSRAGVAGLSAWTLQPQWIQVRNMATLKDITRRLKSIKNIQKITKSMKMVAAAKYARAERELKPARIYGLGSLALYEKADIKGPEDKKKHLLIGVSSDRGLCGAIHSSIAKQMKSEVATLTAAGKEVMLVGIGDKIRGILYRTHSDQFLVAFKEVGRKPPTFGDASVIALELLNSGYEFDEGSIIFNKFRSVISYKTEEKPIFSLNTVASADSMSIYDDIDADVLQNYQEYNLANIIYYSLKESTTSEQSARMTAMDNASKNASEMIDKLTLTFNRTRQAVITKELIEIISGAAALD
UniProt Q06055: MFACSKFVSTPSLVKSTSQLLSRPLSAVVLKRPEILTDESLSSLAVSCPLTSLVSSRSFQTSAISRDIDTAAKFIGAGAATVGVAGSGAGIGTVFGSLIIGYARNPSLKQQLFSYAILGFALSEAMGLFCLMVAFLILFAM

Key:
Test in all cases: log2 fold change, soluble protein after heating vs DMSO (PISA); higher = thermal stabilisation; K562 cells, 10 uM, 30 min; active = over 0.2 and 3.5 SD of the protein, either way, in both replicates (recomputed)
[1] = compound: COC1=CC=C(C=C1)CN2C=CC3=C2C=C(C=C3)C(=O)NO
Summary of the method: (§1)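 Values are thermal stability changes relative to control samples and are taken from duplicates. They are stated as log2 fold changes. Before quantification by TMTpro 16plex LC-MS/MS with equalised channel sums, K562 cells at 2×10^6 cells/mL were treated with 10 μM compound for 30 min, heated in aliquots for 3 min across 48°C-58°C, pooled, extracted in PBS with 0.5% NP-40 at 4°C, and centrifuged at 21,000xg for 90 min to give the soluble supernatant.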

filanesib = compound: CON(C)C(=O)N1N=C(c2cc(F)ccc2F)S[C@@]1(CCCN)c1ccccc1 [filanesib]
Summary of the method: as §1

zotarolimus = compound: CO[C@H]1C[C@@H]2CC[C@@H](C)[C@@](O)(O2)C(=O)C(=O)N2CCCC[C@H]2C(=O)O[C@H]([C@H](C)C[C@@H]2CC[C@H](n3cnnn3)[C@H](OC)C2)CC(=O)[C@H](C)/C=C(\C)[C@@H](O)[C@@H](OC)C(=O)[C@H](C)C[C@H](C)/C=C/C=C/C=C/1C [zotarolimus]
Summary of the method: as §1

idasanutlin = compound: COc1cc(C(=O)O)ccc1NC(=O)[C@@H]1N[C@@H](CC(C)(C)C)[C@](C#N)(c2ccc(Cl)cc2F)[C@H]1c1cccc(Cl)c1F [idasanutlin]
Summary of the method: as §1

alisertib = compound: COc1cc(Nc2ncc3c(n2)-c2ccc(Cl)cc2C(c2c(F)cccc2OC)=NC3)ccc1C(=O)O [alisertib]
Summary of the method: as §1

[2] = compound: COc1cc2nc(-c3cc(F)ccc3O)nc(N[C@@H]3CNC[C@H]3C(C)(C)O)c2cc1OC
Summary of the method: as §1

gefitinib = compound: COc1cc2ncnc(Nc3ccc(F)c(Cl)c3)c2cc1OCCCN1CCOCC1 [gefitinib]
Summary of the method: as §1

[3] = compound: COc1cccc2cc(-c3nc([C@H]4CC[C@H](C(=O)O)CC4)n4ncnc(N)c34)[nH]c12
Summary of the method: as §1

lapatinib = compound: CS(=O)(=O)CCNCc1ccc(-c2ccc3ncnc(Nc4ccc(OCc5cccc(F)c5)c(Cl)c4)c3c2)o1 [lapatinib]
Summary of the method: as §1

pictilisib = compound: CS(=O)(=O)N1CCN(Cc2cc3nc(-c4cccc5[nH]ncc45)nc(N4CCOCC4)c3s2)CC1 [pictilisib]
Summary of the method: as §1

Measured: log2 fold change

ATP6V1D (UniProt Q9Y5K8)
inactive: [1] 0.042 | filanesib -0.015 | zotarolimus -0.003 | idasanutlin 0.006 | alisertib -0.162 | [2] -0.013 | gefitinib -0.061 | [3] -0.002 | lapatinib -0.028 | pictilisib -0.026

ATP1A4 (UniProt Q13733)
inactive: [1] 0.042 | filanesib 0.006 | zotarolimus 0.006 | idasanutlin 0.063 | alisertib -0.083 | [2] 0.003 | gefitinib 0.057 | [3] -0.024 | lapatinib -0.01 | pictilisib 0.016

ATP1A1 (UniProt P05023)
inactive: [1] 0.09 | filanesib 0.013 | zotarolimus 0.002 | idasanutlin 0.004 | alisertib -0.092 | [2] 0.032 | gefitinib 0.03 | [3] 0.054 | lapatinib -0.019 | pictilisib -0.023

ARMC1 (UniProt Q9NVT9)
inactive: [1] 0.005 | filanesib -0.139 | zotarolimus 0.003 | idasanutlin -0.122 | alisertib 0.005 | [2] -0.111 | gefitinib 0.026 | [3] -0.006 | lapatinib 0.026 | pictilisib -0.028

ASPH (UniProt Q12797)
inactive: [1] -0.043 | filanesib 0.168 | zotarolimus 0.007 | idasanutlin 0.035 | alisertib -0.125 | [2] 0 | gefitinib -0.016 | [3] -0.097 | lapatinib 0.094 | pictilisib -0.077

ASNS (UniProt P08243)
inactive: [1] 0.027 | filanesib -0.073 | zotarolimus -0.002 | idasanutlin -0.021 | alisertib -0.027 | [2] 0.02 | gefitinib -0.032 | [3] 0.034 | lapatinib -0.017 | pictilisib 0.019

ASL (UniProt P04424)
inactive: [1] -0.017 | filanesib -0.096 | zotarolimus -0.017 | idasanutlin -0.02 | alisertib -0.024 | [2] 0.018 | gefitinib 0.008 | [3] 0.055 | lapatinib -0.018 | pictilisib 0.05

ATP6AP2 (UniProt O75787)
inactive: [1] 0 | filanesib -0.017 | zotarolimus -0.044 | idasanutlin 0.008 | alisertib -0.056 | [2] -0.027 | gefitinib 0.005 | [3] -0.09 | lapatinib 0.023 | pictilisib -0.013

ARSB (UniProt P15848)
inactive: [1] -0.076 | filanesib -0.03 | zotarolimus -0.088 | idasanutlin -0.018 | alisertib 0.003 | [2] 0.014 | gefitinib 0.074 | [3] 0.051 | lapatinib -0.089 | pictilisib 0.022

ATP5IF1 (UniProt Q9UII2)
inactive: [1] -0.02 | filanesib -0.067 | zotarolimus 0.004 | idasanutlin 0.093 | alisertib -0.062 | [2] 0.024 | gefitinib 0.013 | [3] 0.03 | lapatinib -0.043 | pictilisib -0.016

ATG5 (UniProt Q9H1Y0)
inactive: [1] 0.075 | filanesib -0.072 | zotarolimus 0.045 | idasanutlin -0.028 | alisertib -0.072 | [2] -0.009 | gefitinib -0.005 | [3] 0.002 | lapatinib 0.028 | pictilisib 0

ATP13A1 (UniProt Q9HD20)
inactive: [1] -0.039 | filanesib -0.06 | zotarolimus 0 | idasanutlin -0.105 | alisertib -0.046 | [2] -0.044 | gefitinib -0.023 | [3] 0.01 | lapatinib 0.032 | pictilisib 0.04

ATP5F1C (UniProt P36542)
inactive: [1] -0.019 | filanesib 0 | zotarolimus -0.008 | idasanutlin -0.057 | alisertib -0.05 | [2] 0.026 | gefitinib 0.007 | [3] 0.039 | lapatinib -0.045 | pictilisib 0.087

2 records drawn at random from those above:
ATP5F1C (UniProt P36542)
inactive: [1] -0.019 | filanesib 0 | zotarolimus -0.008 | idasanutlin -0.057 | alisertib -0.05 | [2] 0.026 | gefitinib 0.007 | [3] 0.039 | lapatinib -0.045 | pictilisib 0.087

ATP13A1 (UniProt Q9HD20)
inactive: [1] -0.039 | filanesib -0.06 | zotarolimus 0 | idasanutlin -0.105 | alisertib -0.046 | [2] -0.044 | gefitinib -0.023 | [3] 0.01 | lapatinib 0.032 | pictilisib 0.04

Following part:

ATP5MC2 isoform 2 (UniProt Q06055)
inactive: [1] -0.103 | filanesib -0.025 | zotarolimus 0.005 | idasanutlin -0.052 | alisertib 0.099 | [2] -0.099 | gefitinib 0.024 | [3] -0.066 | lapatinib -0.003 | pictilisib 0.084
